Measurements from publication PMC10873339.
Results are given in words; binding and its absence hold for the method and conditions named. Binding seen in cells or lysates may run through a third protein. Some binding calls cover weakened binding; strength is not graded here. Tags and fused reporters may be left off the sequences shown.

Chains of the proteins cited; added tags and fusions are not shown. Residues count along the entry.
UniProt P28799, residues 18-593: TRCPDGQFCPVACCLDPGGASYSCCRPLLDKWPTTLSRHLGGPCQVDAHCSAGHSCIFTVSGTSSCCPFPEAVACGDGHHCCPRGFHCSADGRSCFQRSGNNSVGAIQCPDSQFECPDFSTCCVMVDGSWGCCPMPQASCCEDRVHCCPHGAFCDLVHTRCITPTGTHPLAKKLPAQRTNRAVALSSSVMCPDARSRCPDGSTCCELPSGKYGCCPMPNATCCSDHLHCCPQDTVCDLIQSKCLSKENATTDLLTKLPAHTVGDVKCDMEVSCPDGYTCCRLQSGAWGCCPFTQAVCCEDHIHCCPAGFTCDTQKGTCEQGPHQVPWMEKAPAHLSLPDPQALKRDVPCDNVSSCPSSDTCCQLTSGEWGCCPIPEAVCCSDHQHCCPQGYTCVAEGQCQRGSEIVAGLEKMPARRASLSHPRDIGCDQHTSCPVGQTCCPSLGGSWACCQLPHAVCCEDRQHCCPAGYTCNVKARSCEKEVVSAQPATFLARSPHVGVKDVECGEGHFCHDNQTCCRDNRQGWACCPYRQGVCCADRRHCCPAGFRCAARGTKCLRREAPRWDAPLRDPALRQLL

Target: FLAG-PGRN (progranulin) (UniProt P28799)
Assay: co-IP; HEK293T cells transfected with FLAG-PGRN and non-tagged human GBA; lysed in 50 mM Tris-HCl pH 7.5, 150 mM NaCl, 0.5% Triton X-100; supernatant incubated with anti-FLAG M2 Affinity Gel overnight at 4 °C; five washes with 0.1% Triton X-100 buffer; blots with anti-GCase and anti-FLAG

B1: non-tagged human GBA (beta-glucocerebrosidase, GCase) (enzyme, UniProt P04062 40-536)
chain: ARPCIPKSFGYSSVVCVCNATYCDSFDPPTFPALGTFSRYESTRSGRRMELSMGPIQANHTGTGLLLTLQPEQKFQKVKGFGGAMTDAAALNILALSPPAQNLLLKSYFSEEGIGYNIIRVPMASCDFSIRTYTYADTPDDFQLHNFSLPEEDTKLKIPLIHRALQLAQRPVSLLASPWTSPTWLKTNGAVNGKGSLKGQPGDIYHQTWARYFVKFLDAYAEHKLQFWAVTAENEPSAGLLSGYPFQCLGFTPEHQRDFIARDLGPTLANSTHHNVRLLMLDDQRLLLPHWAKVVLTDPEAAKYVHGIAVHWYLDFLAPAKATLGETHRLFPNTMLFASEACVGSKFWEQSVRLGSWDRGMQYSHSIITNLLYHVVGWTDWNLALNPEGGPNWVRNFVDSPIIVDITKDTFYKQPMFYHLGHFSKFIPEGSQRVGLVASQKNDLDAVALMHPDGSAVVVVLNRSSKDVPLTIKDPAVGFLETISPGYSIHTYLWRRQ
- binding: binds
